Results are given in words; binding and its absence hold for the method and conditions named. Binding calls can cover weak binding; strength is not graded here.

Chains of the proteins cited; added tags and fusions are not shown. Lines headed by an entry give the natural chain unless they say otherwise; changes in a name come on top.
UniProt I1M0U7: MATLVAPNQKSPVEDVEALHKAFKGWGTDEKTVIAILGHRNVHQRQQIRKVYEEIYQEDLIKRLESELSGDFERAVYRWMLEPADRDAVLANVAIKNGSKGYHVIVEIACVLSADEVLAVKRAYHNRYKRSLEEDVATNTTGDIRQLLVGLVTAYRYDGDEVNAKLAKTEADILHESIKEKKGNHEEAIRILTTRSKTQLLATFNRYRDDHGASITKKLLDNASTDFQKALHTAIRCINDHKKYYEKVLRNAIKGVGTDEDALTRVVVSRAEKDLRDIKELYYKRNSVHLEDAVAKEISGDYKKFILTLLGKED
UniProt A0A0R0ICR4: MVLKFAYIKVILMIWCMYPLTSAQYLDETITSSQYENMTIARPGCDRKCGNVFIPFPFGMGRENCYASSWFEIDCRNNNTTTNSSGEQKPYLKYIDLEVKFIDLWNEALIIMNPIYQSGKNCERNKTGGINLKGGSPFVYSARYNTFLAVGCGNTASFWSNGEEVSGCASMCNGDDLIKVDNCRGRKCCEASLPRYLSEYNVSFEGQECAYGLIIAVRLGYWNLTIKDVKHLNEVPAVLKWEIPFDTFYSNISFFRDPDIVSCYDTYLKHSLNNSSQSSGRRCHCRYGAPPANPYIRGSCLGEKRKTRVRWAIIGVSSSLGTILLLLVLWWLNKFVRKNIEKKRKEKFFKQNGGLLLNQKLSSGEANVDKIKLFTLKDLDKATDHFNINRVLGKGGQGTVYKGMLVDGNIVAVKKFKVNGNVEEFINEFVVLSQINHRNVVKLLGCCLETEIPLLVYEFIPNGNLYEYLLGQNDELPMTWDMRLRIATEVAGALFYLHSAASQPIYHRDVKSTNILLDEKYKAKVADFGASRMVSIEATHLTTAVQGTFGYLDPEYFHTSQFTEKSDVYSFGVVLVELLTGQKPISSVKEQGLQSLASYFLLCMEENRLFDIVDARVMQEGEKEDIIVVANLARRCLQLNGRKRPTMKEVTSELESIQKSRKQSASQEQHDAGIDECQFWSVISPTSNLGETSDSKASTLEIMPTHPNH

This test concerns the target GmANNRJ4-GST recombinant protein (Glycine max (soybean)) (UniProt I1M0U7). Description: pull-down; GST or GmANNRJ4-GST on GST resin in GST binding buffer, 1 h at 4 °C, then GmWAK1-His added for 6 h at 4 °C; five washes; immunoblot with anti-His and anti-GST; both purified. Background: Immunoblotting shows a protein as a band on a membrane.

Turning to “GmWAK1-His recombinant protein (from UniProt A0A0R0ICR4)”, the binding result is given as “binds”.

The values above are taken from publication PMC9821614.
